Strings that start with PEPTIDE1 are HELM notation: dots part the residues, brackets hold end groups and non-standard residues.
Test: general procedure: Fmoc solid-phase peptide synthesis; Rink Amide MBHA ([…]); DIC/HOAt
Settings: conjugation step; for final HPLC purity / purity (crude or final not stated): 220/254 nm, HPLC
[1] = bicyclic, sequence written open

Substance	final HPLC purity [1] [%]	conjugation yield [1] [%]	purity (crude or final not stated) [1] [%]	conjugation yield [%]	final HPLC purity [%]	purity (crude or final not stated) [%]
MMAE-PABC-Cit-Val-Glutaryl-BCY8269	96.8	48.18				
MMAE-PABC-Cit-Val-Glutaryl-BCY8234	99.30		99.60			
PEPTIDE1{[MMAE-PABC-Cit-Val-Glutaryl].[bAla].[Sar].[Sar].[Sar].[Sar].[Sar].[Sar].[Sar].[Sar].[Sar].[Sar].C.P.F.[dD].C.M.[HArg].N.W.S.T.P.I.W.C.[am]}|CHEM1{[TATA]}$PEPTIDE1,CHEM1,13:R3-1:R1|PEPTIDE1,CHEM1,17:R3-1:R2|PEPTIDE1,CHEM1,27:R3-1:R3$$$V2.0				31.22	99.0	98.40
MMAE-PABC-Cit-Val-Glutaryl-BCY8273	95.7	34.74				
MMAE-PABC-Cit-Val-Glutaryl-BCY8231	96.9	33.17	97.00			
MMAE-PABC-Cit-Val-Glutaryl-BCY7556	99.6	28.39				
MMAE-PABC-Cit-Val-Glutaryl-BCY8232	99.4	33.70				
MMAE-PABC-Cit-Val-Glutaryl-BCY8235	96.4	25.94	99.40			
